These are yes or no findings as the source states them, for the method shown. Binding seen in cells or lysates may run through a third protein.
Target: histone demethylase JMJD1C (human (endogenous in K562, MEG-01 and cord blood cells)) (UniProt Q15652)
Assay: co-IP; Supplementary Figure S2; cells not given; non-denaturing lysis buffer, protein A/G magnetic beads, western blotting

Protein sequences, listed by entry. Tags and fused reporters are not part of them.
UniProt Q15652: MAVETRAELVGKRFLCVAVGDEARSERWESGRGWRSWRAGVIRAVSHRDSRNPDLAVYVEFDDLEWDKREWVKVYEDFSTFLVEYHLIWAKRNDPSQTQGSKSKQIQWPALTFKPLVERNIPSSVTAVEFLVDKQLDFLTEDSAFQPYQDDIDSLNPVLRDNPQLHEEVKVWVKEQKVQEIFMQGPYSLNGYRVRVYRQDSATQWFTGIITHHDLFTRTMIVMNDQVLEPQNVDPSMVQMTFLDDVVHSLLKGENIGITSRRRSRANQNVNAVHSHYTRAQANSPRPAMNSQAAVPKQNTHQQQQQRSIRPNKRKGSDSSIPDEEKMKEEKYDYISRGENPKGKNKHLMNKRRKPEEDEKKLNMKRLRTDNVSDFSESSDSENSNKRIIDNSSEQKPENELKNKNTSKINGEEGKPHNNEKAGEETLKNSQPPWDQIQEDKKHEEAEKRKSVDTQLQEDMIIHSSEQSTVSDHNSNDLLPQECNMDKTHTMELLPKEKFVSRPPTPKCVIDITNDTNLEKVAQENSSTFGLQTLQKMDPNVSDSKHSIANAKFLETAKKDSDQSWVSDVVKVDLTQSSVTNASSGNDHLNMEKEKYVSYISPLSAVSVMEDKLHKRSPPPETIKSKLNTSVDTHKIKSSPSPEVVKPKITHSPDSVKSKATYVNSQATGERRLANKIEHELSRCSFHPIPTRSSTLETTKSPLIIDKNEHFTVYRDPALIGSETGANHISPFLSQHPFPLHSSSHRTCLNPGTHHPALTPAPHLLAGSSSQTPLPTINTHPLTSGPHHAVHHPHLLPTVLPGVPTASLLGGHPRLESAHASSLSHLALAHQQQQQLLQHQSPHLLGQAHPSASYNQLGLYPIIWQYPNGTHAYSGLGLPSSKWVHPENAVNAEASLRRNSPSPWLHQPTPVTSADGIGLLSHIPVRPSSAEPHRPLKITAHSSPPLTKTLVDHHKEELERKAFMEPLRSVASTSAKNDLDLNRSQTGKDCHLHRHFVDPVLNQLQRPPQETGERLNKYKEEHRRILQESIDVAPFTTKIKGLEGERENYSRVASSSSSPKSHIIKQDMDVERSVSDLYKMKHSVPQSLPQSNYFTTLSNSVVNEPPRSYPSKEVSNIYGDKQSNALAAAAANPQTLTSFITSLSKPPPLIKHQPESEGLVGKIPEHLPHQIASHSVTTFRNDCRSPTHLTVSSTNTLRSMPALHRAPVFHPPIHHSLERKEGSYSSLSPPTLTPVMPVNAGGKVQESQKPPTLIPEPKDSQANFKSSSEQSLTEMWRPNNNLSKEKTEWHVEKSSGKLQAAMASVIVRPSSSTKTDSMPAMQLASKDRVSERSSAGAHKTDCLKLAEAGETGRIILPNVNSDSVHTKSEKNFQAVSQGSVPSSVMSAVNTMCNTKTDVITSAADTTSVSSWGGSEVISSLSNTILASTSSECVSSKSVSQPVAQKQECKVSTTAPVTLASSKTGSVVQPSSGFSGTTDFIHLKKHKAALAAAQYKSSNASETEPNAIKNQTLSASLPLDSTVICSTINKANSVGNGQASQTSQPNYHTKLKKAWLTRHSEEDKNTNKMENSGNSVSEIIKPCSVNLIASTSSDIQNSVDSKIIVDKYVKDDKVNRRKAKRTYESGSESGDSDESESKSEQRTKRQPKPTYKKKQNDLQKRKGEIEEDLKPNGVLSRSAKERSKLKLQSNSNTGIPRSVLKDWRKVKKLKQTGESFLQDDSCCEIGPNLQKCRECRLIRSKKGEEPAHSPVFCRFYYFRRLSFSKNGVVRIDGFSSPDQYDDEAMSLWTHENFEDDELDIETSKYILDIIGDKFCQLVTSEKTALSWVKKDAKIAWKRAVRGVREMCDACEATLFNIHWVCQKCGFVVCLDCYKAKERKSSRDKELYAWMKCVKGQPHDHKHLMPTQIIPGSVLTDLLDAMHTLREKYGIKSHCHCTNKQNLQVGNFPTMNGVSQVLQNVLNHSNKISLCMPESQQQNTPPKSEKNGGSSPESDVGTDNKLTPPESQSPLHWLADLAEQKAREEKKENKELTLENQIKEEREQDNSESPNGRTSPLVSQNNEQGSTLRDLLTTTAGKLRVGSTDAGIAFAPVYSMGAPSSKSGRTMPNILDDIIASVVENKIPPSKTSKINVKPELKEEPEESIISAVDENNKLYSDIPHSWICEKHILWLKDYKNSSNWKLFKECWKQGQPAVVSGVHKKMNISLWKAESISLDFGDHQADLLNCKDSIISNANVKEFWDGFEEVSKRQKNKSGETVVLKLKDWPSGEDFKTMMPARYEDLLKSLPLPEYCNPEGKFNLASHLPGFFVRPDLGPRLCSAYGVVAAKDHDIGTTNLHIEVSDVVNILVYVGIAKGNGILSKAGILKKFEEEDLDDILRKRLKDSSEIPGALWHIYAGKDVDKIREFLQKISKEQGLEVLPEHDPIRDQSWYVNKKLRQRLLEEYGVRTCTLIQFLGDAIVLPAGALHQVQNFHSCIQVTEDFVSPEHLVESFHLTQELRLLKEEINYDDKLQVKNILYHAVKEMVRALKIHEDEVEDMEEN
UniProt P60953: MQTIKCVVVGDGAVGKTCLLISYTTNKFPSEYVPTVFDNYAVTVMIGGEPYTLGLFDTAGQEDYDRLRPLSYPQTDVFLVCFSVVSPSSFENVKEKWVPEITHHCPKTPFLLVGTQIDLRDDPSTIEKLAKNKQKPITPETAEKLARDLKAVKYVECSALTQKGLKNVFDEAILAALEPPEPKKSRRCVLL
UniProt P23528: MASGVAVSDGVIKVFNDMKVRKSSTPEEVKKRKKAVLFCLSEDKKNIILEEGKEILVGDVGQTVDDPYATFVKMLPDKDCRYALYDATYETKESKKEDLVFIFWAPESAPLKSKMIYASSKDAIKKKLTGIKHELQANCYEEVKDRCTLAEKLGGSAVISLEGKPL
UniProt P35579: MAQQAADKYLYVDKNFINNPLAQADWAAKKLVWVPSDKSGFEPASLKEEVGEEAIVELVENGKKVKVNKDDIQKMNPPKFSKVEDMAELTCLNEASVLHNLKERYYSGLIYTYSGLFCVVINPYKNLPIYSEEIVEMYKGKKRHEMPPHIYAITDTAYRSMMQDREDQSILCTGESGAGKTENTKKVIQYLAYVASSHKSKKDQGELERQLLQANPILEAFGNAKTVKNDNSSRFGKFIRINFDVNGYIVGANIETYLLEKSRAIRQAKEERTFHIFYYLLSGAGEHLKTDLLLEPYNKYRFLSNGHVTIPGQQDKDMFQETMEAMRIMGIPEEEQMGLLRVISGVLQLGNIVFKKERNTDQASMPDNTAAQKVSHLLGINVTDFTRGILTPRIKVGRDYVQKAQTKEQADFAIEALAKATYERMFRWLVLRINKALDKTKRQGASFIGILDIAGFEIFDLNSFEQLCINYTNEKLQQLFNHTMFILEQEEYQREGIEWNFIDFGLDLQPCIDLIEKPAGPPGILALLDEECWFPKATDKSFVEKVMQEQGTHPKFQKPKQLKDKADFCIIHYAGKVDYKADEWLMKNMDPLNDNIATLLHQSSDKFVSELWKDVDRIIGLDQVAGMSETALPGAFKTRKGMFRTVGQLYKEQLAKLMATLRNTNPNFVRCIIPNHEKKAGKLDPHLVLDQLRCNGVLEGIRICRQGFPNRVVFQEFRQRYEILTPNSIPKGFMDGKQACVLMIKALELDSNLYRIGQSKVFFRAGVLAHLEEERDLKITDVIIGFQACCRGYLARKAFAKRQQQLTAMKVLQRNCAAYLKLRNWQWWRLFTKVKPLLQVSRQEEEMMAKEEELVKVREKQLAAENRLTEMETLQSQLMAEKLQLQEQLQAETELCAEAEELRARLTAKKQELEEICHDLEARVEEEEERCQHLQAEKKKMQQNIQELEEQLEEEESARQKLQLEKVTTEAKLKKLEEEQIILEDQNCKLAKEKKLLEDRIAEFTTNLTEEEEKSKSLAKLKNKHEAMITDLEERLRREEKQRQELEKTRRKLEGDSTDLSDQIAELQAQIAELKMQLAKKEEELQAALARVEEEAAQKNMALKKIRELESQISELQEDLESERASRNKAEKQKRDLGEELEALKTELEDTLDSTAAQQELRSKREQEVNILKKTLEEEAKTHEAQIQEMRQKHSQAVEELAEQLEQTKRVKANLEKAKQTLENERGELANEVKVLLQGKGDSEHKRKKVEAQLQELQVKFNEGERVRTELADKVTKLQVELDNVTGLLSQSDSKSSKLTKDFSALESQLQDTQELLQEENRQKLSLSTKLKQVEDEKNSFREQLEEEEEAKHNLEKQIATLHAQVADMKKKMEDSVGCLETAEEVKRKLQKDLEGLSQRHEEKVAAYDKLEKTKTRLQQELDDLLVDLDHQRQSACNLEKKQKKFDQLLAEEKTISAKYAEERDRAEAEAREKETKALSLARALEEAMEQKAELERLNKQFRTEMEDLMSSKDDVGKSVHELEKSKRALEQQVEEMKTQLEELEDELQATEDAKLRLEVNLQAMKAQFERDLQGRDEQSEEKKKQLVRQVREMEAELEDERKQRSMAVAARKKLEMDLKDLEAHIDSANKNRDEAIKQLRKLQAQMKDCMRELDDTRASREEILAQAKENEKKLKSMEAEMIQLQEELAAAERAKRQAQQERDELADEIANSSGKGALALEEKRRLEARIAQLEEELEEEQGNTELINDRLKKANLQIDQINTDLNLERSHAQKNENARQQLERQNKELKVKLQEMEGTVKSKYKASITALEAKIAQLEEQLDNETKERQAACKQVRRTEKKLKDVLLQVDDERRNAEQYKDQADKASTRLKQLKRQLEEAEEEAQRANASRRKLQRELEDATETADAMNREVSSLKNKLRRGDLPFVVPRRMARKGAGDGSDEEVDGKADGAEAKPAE

Substance | binding
CDC42 (from UniProt P60953 1-191) | no binding
CFL1 (from UniProt P23528 1-166) | no binding
MYH9 (from UniProt P35579 1-1960) | no binding
